# Test results: PubChem BioAssay AID2685 (National Center for Advancing Translational Sciences (NCATS), 2010)
# This is one part of the list. Shown are side measurements of this screen, not its main read-out; they come without a call. Most of these compounds were active or inconclusive in the main read-out, so they are no random draw. Potencies come from curve fits of mixed quality, noted in brackets.
# Assay: qHTS Assay for Lipid Storage Modulators in Drosophila S3 Cells;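 as to cell number change: cells counted by Cell Tracker Red CMTPX staining in the red channel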
# Conditions: BODIPY lipid droplet fluorescence, 18-24 h; for cell number change: measured here: cell count max response, cells fed with added oleic acid
# Method in brief: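 Drosophila S3 cells loaded with oleic acid (400 uM, as added) and compounds at several concentrations; lipid droplets imaged by 488-nm laser-scanning cytometry, 500–530 nm intensity and object ratio to cell channel. Percent activity normalized to 20 uM Triacsin C.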
# [1] = measured here: lipid fluorescence (Fed channel) AC50, cells fed with added oleic acid
# [2] = measured here: cell number channel AC50, cells fed with added oleic acid
SMILES,cell number change [%],AC50 [1],AC50 [2]
CCC(CC)NC(=O)Cc1ccc(S(=O)(=O)N2CCOCC2)s1,9.1,–,–
CCNC(=O)NC(=O)CSc1cccc(C(F)(F)F)c1,-13.2,"0.291 µM [rising, full curve, poor fit]",–
Cc1ccccc1N1CCN(S(=O)(=O)c2ccc3ccccc3c2)CC1,50.7,–,"18.4 µM [rising, single point]"
CCOc1ccccc1N(CC(=O)Nc1ccc(S(=O)(=O)N2CCCC2)cc1)S(C)(=O)=O,-43.6,–,"9.2 µM [falling, partial curve, poor fit]"
Cc1cc(CNC(=O)CC2C(=O)NCCN2Cc2ccc(-c3ccccc3)cc2)nn1C (stereo not drawn),11.5,–,–
C=CCNC(=O)COC(=O)c1ccc(Cl)c(S(N)(=O)=O)c1,-18.1,–,–
COc1ccc(N2CCN(c3ccc4nnc(CCC(=O)Nc5ccc(C)cc5)n4n3)CC2)cc1,1.44,–,–
CN(C)/C=C1\C(=O)ON=C1c1ccccc1,-28.9,–,"0.517 µM [rising, partial curve]"
CC(=O)Nc1ccc(S(=O)(=O)N(C)CC(=O)OCC(=O)N2CCCC2=O)cc1,-15.2,–,–
CS(=O)(=O)Nc1nnc(C2CCCC2)s1,1.12,–,"0.231 µM [falling, full curve, poor fit]"
O=C(O)c1ccc(S(=O)(=O)N[C@@H](Cc2ccc(O)cc2)C(=O)O)cc1,5.9,"16.4 µM [falling, single point]",–
COc1ccccc1NC(=O)CN(Cc1ccco1)C(=O)c1cc2ccccc2o1,39.4,–,"20.6 µM [rising, single point]"
O=C1c2ccccc2C(=O)N1CCOc1ccccc1Cl,-0.54,"0.58 µM [falling, single point]",–
Cc1nc(NCCc2ccc(F)cc2)c(C#N)c(C)c1[N+](=O)[O-],-21.1,"9.2 µM [falling, single point]",–
CCN(CC)C(=O)N1c2ccccc2Sc2ccccc21,5.84,"29.1 µM [rising, single point]",–
O=C1Nc2ccccc2CCC1Sc1nnc(-c2ccc(Cl)cc2)s1 (stereo not drawn),-9.9,"20.6 µM [falling, single point]",–
COc1cc(/C=C/C(=O)OCC(=O)NCc2ccco2)cc(OC)c1OC,-7.94,–,"2.06 µM [falling, partial curve]"
CCn1nccc1C(=O)Nc1nccs1,–,–,"4.61 µM [falling, partial curve, poor fit]"
COc1ccc(NC(=O)C2CCC(CNc3c(N4CCCCC4)c(=O)c3=O)CC2)cc1OC (stereo not drawn),–,"4.11 µM [rising, partial curve, poor fit]","6.51 µM [rising, single point]"
COCCCN1C(=O)C(=O)/C(=C(/O)c2ccc(OCC(C)C)cc2C)C1c1cccnc1 (stereo not drawn),96.5,–,"29.1 µM [rising, single point]"

SMILES,cell number change [%],AC50 [1],AC50 [2]
Cc1c(C)c2ccc(OC(C)C(=O)NCCc3c[nH]c4ccccc34)cc2oc1=O (stereo not drawn),-5.54,"23.1 µM [falling, partial curve, poor fit]",–
Cc1ccccc1OCc1nnc(SCC(=O)NC2CCCCC2)o1,44.4,"6.51 µM [rising, partial curve]","5.17 µM [rising, partial curve, poor fit]"
COc1ccc(S(=O)(=O)N2CCCCCC2)cc1C(=O)OCC(=O)NCC(C)C,60.3,–,"1.84 µM [rising, full curve]"
Cn1c(SCC(=O)N2CCN(c3cccc(Cl)c3)CC2)nnc1-c1ccncc1,-15.7,"29.1 µM [falling, single point]",–
CN(C(=O)C12CC3CC(CC(C3)C1)C2)C1CCS(=O)(=O)C1 (stereo not drawn),1.55,–,–
O=c1c2cccnc2nc2n1CCCCC2,-4.62,"2.31 µM [falling, single point]","0.82 µM [falling, single point]"
COc1ccccc1N(C(=O)c1snc(C(N)=O)c1N)C(C(=O)NC1CCCC1)c1ccco1 (stereo not drawn),4.61,"16.4 µM [rising, single point]",–
O=C(CSc1ncnc2c1cnn2-c1ccccc1)NCC1CCCO1 (stereo not drawn),–,"4.11 µM [falling, single point]",–
Cc1cc(C(=O)CSc2nnc(-c3ccc(F)cc3)o2)c(C)n1CC1COc2ccccc2O1 (stereo not drawn),-7.9,–,–
COc1ccc(CC(=O)NCCS(=O)(=O)N2CCN(c3ccc(F)cc3)CC2)cc1OC,-18.9,–,–
N=c1c(S(=O)(=O)c2ccc(Cl)cc2)cc2c(=O)n3ccccc3nc2n1C1CCCCC1,16.8,–,–
O=C(CNC(=O)c1ccccc1)Nc1ccsc1C(=O)O,-23.6,"16.4 µM [falling, partial curve, poor fit]",–
O=C(Nc1ccccc1)c1ccc(S(=O)(=O)NCc2cccnc2)cc1,4.96,"1.3 µM [rising, full curve]","6.51 µM [rising, single point]"
COC(=O)c1ccc(NC(=O)c2ccccc2NS(=O)(=O)c2ccccc2)cc1,104,–,"29.1 µM [rising, single point]"
CC1CCN(C(=O)CCNS(=O)(=O)c2ccc(Cl)cc2)CC1,15.5,–,"6.51 µM [rising, single point]"
COc1ccc(/C=N/NC(=O)c2ccc(NC(=O)c3cccc([N+](=O)[O-])c3)cc2)c(C(=O)O)c1OC,-10.3,"2.91 µM [rising, full curve]",–
CCN=C1S/C(=C\c2ccc(N3CCOCC3)cc2C)C(=O)N1CC,-34.4,"0.82 µM [rising, full curve, poor fit]","32.6 µM [falling, single point]"
Nc1ccc(OCC(O)C[n+]2ccc(CCS(=O)(=O)[O-])cc2)cc1 (stereo not drawn),-27.1,–,–
O=C(CSc1nnc(-c2ccccc2)c(-c2ccccc2)n1)Nc1ccc(Br)cn1,-75.8,"2.59 µM [falling, full curve]","11.6 µM [falling, partial curve]"
Cc1nn(C)cc1/C=N/NC(=O)C(C)(C)Oc1ccc(Cl)cc1,36.6,–,"10.3 µM [rising, partial curve, poor fit]"

# Just cell number change [%] and AC50 [2] (2 entries from above):
SMILES | cell number change [%] | AC50 [2]
CCN(CC)C(=O)N1c2ccccc2Sc2ccccc21 | 5.84 | –
O=C(CNC(=O)c1ccccc1)Nc1ccsc1C(=O)O | -23.6 | –
